{"source": "patent US20160053248A1", "about": "“SYSTEMS AND METHODS FOR EVOLVING ENZYMES WITH DESIRED ACTIVITIES” (Potomac Affinity Proteins, LLC, priority 2009, published 2016)", "target": "T1, subtilisin variant SBT189 (Bacillus amyloliquefaciens (Bacillus velezensis)) (UniProt P00782)", "T1 sequence": "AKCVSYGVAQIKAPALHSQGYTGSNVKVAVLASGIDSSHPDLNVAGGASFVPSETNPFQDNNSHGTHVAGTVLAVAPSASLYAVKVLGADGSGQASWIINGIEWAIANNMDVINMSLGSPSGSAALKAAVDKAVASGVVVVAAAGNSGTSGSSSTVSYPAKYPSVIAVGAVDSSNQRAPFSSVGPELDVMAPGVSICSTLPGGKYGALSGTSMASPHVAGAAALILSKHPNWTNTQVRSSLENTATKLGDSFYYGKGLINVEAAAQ", "test": "complex formed at 100 µM for the activation cascade", "note": "No constants are given. Whether binding was seen depends on the method and setting. Some entries that bind do so weakly or less than the wild type."}
{"binder": "prodomain variant pS156 (protein) AGKSNGEKKYIVGFKQTMSTMSAAKKKDVISEKGGKVQKQFKYVDAASATLNEKAVKELKKDPSVAYVEEDHVFKAY", "values": [{"measurement": "binding", "value": "binds"}]}
